Source: patent US9353116B2, “Methods and compositions for kinase inhibition” (THE REGENTS OF THE UNIVERSITY OF CALIFORNIA, priority 2010, dated 2016)
At least one compound was matched to its structure with a doubt left.

Tested on: 307 kinases
Test: Kinome-wide profiling (SelectScreen Kinase Profiling Service)
Type: biochemical
Conditions: compounds at 1 μM, ATP at Km,app
Description: The percent inhibition results in FIG. were generated with biochemical enzymatic kinase assays using the SelectScreen® Kinase Profiling Service (Life Technologies Corporation, Madison, Wis.). Compounds were assayed at 1 μM at an ATP concentration equal to the ATP Km,app for the assay following the detailed procedures described in the SelectScreen® Customer Protocol and Assay Conditions documents located at www.invitrogen.com/kinaseprofiling.
Compounds that were profiled include, but are not limited to, 3, 4, 9, 13, and 20. […] The exocyclic amine mimics N6 of ATP and plays an important role in a hydrogen bonding interaction with the hinge region of kinases.

For C=CS(=O)(=O)Nc1ccc(Nc2ncnc3cc(OC)c(OC)cc23)cc1 [Compound 20, N-(4-(6,7-dimethoxyquinazolin-4-ylamino)phenyl)ethenesulfonamide], the “off-target profile in kinome-wide screen” value was “relatively few off-target effects”.
